Laboratory results: patent US20230265457A1
No constants are given. Whether binding was seen depends on the method and setting. Some binding calls cover weakened binding; strength is not graded here.

Target: T1, Mouse IL-12 P35 subunit (mouse) (UniProt P43431)
T1 sequence: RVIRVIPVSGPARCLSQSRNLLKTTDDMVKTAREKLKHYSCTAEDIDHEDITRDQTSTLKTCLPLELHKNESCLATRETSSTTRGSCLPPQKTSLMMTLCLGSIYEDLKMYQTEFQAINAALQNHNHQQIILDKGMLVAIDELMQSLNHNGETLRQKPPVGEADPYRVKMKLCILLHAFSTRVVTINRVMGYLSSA
Test: Western blot of secreted protein from mIL-12 vector-transduced A375 clones, reducing versus non-reducing

- binding: binds
B1: Mouse IL-12 P40 subunit (ligand)
chain: MWELEKDVYVVEVDWTPDAPGETVNLTCDTPEEDDITWTSDQRHGVIGSGKTLTITVKEFLDAGQYTCHKGGETLSHSHLLLHKKENGIWSTEILKNFKNKTFLKCEAPNYSGRFTCSWLVQRNMDLKFNIKSSSSSPDSRAVTCGMASLSAEKVTLDQRDYEKYSVSCQEDVTCPTAEETLPIELALEARQQNKYENYSTSFFIRDIIKPDPPKNLQMKPLKNSQVEVSWEYPDSWSTPHSYFSLKFFVRIQRKKEKMKETEEGCNQKGAFLVEKTSTEVQCKGGNVCVQAQDRYYNSSCSKWACVPCRVRSRR
